Test results from PubChem BioAssay AID1347423 (Functional Genomics Laboratory (NCATS/FGL), 2020).
In all, about 52,000 sequences went through this assay and about 210 (0.4%) were called active.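 Rule for the calls: active = gene whose silencing raises cell survival under the drug, median off-target-corrected z-score across its silencing RNAs 2 or more; inactive = the rest.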 The list shows a part of the results.

experiment: Resistance to Poly (ADP-Ribose) Polymerase inhibitor: Gene Identification via Genome-wide siRNA Screen; settings: mouse BRCA2 R2336H ES cells, olaparib, CellTiter-Glo viability; stronger effect = higher value
In short: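 Genome-wide siRNA screen (3 siRNAs/gene, 20 nM) in mouse ES cells carrying hypomorphic BRCA2 R2336H; olaparib 500 nM added 48 h post-transfection, CellTiter-Glo viability 72 h later. Normalized to plate-median negative control; MAD z-scores, gene median, seed-adjusted.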

Sequence | z-score
GGGACAAGAAGAACAAGAGTT against Srp14 | inactive: 0.995
GGCUGUCUUCUGAAGGACATT against Mrpl43 | inactive: -1.21
GUGCAGUUGUGACAAUAUATT against Pramel3 | inactive: -0.703
GCAGAGUCUGGAUCAACAUTT against 4732418C07Rik | inactive: -0.745
CGAUUGUAUAGCUUUUAAGTT against Gfpt2 | inactive: 0.84
CGAAAUGACAGUGUUAUUCTT against Mpl | inactive: 2.17
GGACUGCUGAACUUGCUCATT against 1810010N17Rik | inactive: 0.529
GGGCCUUCACACUUCACUUTT against 2310016E02Rik | inactive: 0.51
GCGUGGAUAACACUGUUGUTT against Hira | inactive: -0.103
GGUCCUAUCUUCCUAUCAUTT against D130058I21Rik | inactive: 1.64
GACGAAUAUCAUCUCACACTT against Olfr875 | inactive: 0.619
GGUUCAUUGUCUGAGAUCATT against Gt(ROSA)26asSor | inactive: 1.51
GGAGCUGAGGAAUUGAUCCTT against 1700121L12Rik | inactive: -0.704
GGAGCUCUUUGACUUCUUGTT against Uqcrh | inactive: 0.582
GCUUAAUGAACUGUCCUCUTT against Agc1 | inactive: 2.42
GGCAUUUAAUAUCAGGUCATT against Zfp62 | inactive: -0.367
GCCAAAGUAGCAUUAGUGATT against AI317237 | inactive: 1.12
GCGUGAAAAUGGAUAUCUUTT against Stab1 | inactive: 0.508
GGAAAAGAUGCCUGUAUUUTT against Sgcd | inactive: -0.224
CGGUGAUCAAAGAUAAGAATT against Zfp95 | inactive: 0.407
GGAGAUCAAAGAAUCUUGGTT against 6330406L22Rik | inactive: 1.58
GGAAGCCAUCUUUAUCCUGTT against Pole4 | inactive: 1.32

Sequence | z-score
GGCAGCAAAGUCAAGAUGUTT against Msgn1 | inactive: -0.17
GGGUUAAUGCAUCAUUUGATT against Mef2d | inactive: 1.42
GGCCCAGGAUAUUUUAGUUTT against Gm574 | inactive: 1.01
GGAUGUUAAUGGAUUCACATT against Ptprt | inactive: -0.779
CCAAGACUGUGACAAGUUUTT against Ctsz | inactive: 0.254
GGACAUUAUCAAGUUUCUGTT against Fkbp3 | inactive: 0.237
GGUGUGGGAUUUCUACACUTT against B230113C15Rik | inactive: 1.13
GACAGAAAUAUAGACUCGATT against 4930418G15Rik | inactive: -2.57
GGGAACAAGACAACACAGCTT against Adam11 | inactive: 0.0583
GGCAAACGAAUGCAUGUACTT against 4921506I22Rik | inactive: 0.952
GGAUCCAUCCGUCUCUAAGTT against 4930535B03Rik | inactive: -1.95
GGUUGAAUAUACUUAGCACTT against A030008J09 | inactive: 0.746
GGAUAAUGCUCCAUCAUAGTT against Nab1 | inactive: -0.571
GGACCUCUAAAAGGAAAAUTT against Tdrd7 | inactive: -0.25
GCCUAAGUUCCCUUAUUAATT against Arfrp1 | inactive: 0.0934
CCUGAACCAACAACGCAAATT against Zfp278 | inactive: 1.21
CCAACGCGUGUUAUAUGUGTT against Prep | inactive: 2.5
GCUAACACCUCACAUCUGGTT against Adam1a | inactive: 0.211
GGUUUAUCACAACUACCGCTT against AI839735 | inactive: -0.133
GGUUGUAAAGGAAGAGAAGTT against Xlkd1 | inactive: -1.33
CCAAUUGGAAGAAUCCAGGTT against 9930109F21 | inactive: -0.0734
GAGAGAUUGGUAUUCCUGCTT against Olfr578 | inactive: 0.663

Single entries from the entries so far:
z-score with GCAGAGUCUGGAUCAACAUTT against 4732418C07Rik reads inactive: -0.745
z-score with CGAAAUGACAGUGUUAUUCTT against Mpl reads inactive: 2.17
z-score with CGAUUGUAUAGCUUUUAAGTT against Gfpt2 reads inactive: 0.84
z-score with GCUAACACCUCACAUCUGGTT against Adam1a reads inactive: 0.211

Additional results follow.

Sequence | z-score
GGUGUCUUUUUUCCUCUUCTT against Adcy4 | inactive: -0.895
GGUACUAGAUUGGAUGUCATT against Slc39a14 | inactive: -1.42
CCAUAUUGAAACCUCAUUUTT against Drctnnb1a | inactive: 0.0306
CCGUCAUUGUCUUGGAAGCTT against Syt5 | inactive: 1.47
GCGAAGGCUAGAUGUAGUGTT against Emilin1 | inactive: 1.34
GCUCAUGCCAAGGUACGAUTT against 1110015K06Rik | inactive: 1.22
GGAGACCACGUCCAACAAUTT against Sh3bp2 | inactive: 2.61
GCGUGAUUUUCCCUUGAGGTT against Cyp3a16 | inactive: 0.253
GGAGAUCUCCAUCACACACTT against Rps6ka1 | inactive: 0.796
GGUUUAUGAGUAACUGUCATT against Defb10 | inactive: -2.73
GGACAAUAGUGUGCUACCATT against 2900055D03Rik | inactive: 2.24
GGAGAUGGCUUUGAUGCUGTT against Gnmt | inactive: 0.262
GGAACCUGUUUGUUUAUCATT against Centa2 | inactive: 0.181
GGUAUGGAUCAAGGUUCUUTT against A530015O12Rik | inactive: -1.14
GGAAGCUGUAGAAACACAUTT against Nbn | inactive: 1.25
GGAGUGUUUGGUUUCUAUATT against 1200007B05Rik | inactive: 1.1
ACCCUCACCUCGCAUGACUTT against 2700061N24Rik | inactive: 0.53
GGUACCAUAUGAGAGCUAATT against 2310007F12Rik | inactive: 2.05
GGCCUUAGUAUUCUGCCUCTT against B230104P22Rik | inactive: 0.809
GCUGUUUGCCUGGAAUUGGTT against 1110020P15Rik | inactive: -0.198
GGAAAACAUACUGCUUUGATT against 2210412D01Rik | inactive: -0.0321
